Values quoted from earlier work as cited in US11000708B2 (priority 2015, dated 2021).
Read-outs that look alike come from different tables or passages of the source. At least one structure is not confirmed: it was looked up by name or label, or the drawing left a doubt.

Test system: 518 clinically-separated Mycobacterium tuberculosis strains
Settings: cited from earlier work

CC1COc2c(N3CCN(C)CC3)c(F)cc3c(=O)c(C(=O)O)cn1c23 (stereo not drawn) [ofloxacin]
resistance rate of Mycobacterium tuberculosis (518 clinically-separated strains): 39.77%
resistance rate of Mycobacterium tuberculosis (among 217 multiple-drug-resistant strains): 72.35%
resistance rate of Mycobacterium tuberculosis (among 321 strains resistant to one or more first-line drugs): 57.01%
